Publication PMC11074327
These are yes or no findings as the source states them, for the method shown. In cells and extracts the contact can be indirect. Some binding calls cover weakened binding; strength is not graded here. Tags and fused reporters may be left off the sequences shown.

Legend:
Fg-Ter94 (Drosophila) = Fg-Ter94 (Drosophila) (UniProt Q7KN62); assay: co-IP; HEK-293T cells co-transfected with two tagged constructs (PEI), collected 48 h after transfection; IP with anti-Fg or anti-Myc, immunoblot
[1] = target: Fg-Ter94-C (aa661-801) (Drosophila) (UniProt Q7KN62); assay: as above
[2] = target: Fg-Ter94-M (aa211-660) (Drosophila) (UniProt Q7KN62); assay: as above
[3] = target: T1, Fg-Ter94-N (aa1-210) (Drosophila) (UniProt Q7KN62); assay: as above
T1 sequence: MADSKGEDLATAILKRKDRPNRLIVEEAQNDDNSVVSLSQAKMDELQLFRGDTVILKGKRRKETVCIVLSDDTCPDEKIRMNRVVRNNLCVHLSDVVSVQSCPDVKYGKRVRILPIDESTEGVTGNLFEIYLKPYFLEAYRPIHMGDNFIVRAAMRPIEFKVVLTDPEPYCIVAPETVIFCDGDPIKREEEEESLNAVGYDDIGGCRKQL

Fg-Kib (Drosophila) = target: T2, Fg-Kib (Drosophila) (UniProt Q9VFG8); assay: co-IP; HEK-293T cells co-transfected with two tagged partners, with or without co-expressed HA-Ter94 (Fig. 7a-c) or HA-Ub-K63 (Fig. 7d-e); IP and immunoblot
T2 sequence: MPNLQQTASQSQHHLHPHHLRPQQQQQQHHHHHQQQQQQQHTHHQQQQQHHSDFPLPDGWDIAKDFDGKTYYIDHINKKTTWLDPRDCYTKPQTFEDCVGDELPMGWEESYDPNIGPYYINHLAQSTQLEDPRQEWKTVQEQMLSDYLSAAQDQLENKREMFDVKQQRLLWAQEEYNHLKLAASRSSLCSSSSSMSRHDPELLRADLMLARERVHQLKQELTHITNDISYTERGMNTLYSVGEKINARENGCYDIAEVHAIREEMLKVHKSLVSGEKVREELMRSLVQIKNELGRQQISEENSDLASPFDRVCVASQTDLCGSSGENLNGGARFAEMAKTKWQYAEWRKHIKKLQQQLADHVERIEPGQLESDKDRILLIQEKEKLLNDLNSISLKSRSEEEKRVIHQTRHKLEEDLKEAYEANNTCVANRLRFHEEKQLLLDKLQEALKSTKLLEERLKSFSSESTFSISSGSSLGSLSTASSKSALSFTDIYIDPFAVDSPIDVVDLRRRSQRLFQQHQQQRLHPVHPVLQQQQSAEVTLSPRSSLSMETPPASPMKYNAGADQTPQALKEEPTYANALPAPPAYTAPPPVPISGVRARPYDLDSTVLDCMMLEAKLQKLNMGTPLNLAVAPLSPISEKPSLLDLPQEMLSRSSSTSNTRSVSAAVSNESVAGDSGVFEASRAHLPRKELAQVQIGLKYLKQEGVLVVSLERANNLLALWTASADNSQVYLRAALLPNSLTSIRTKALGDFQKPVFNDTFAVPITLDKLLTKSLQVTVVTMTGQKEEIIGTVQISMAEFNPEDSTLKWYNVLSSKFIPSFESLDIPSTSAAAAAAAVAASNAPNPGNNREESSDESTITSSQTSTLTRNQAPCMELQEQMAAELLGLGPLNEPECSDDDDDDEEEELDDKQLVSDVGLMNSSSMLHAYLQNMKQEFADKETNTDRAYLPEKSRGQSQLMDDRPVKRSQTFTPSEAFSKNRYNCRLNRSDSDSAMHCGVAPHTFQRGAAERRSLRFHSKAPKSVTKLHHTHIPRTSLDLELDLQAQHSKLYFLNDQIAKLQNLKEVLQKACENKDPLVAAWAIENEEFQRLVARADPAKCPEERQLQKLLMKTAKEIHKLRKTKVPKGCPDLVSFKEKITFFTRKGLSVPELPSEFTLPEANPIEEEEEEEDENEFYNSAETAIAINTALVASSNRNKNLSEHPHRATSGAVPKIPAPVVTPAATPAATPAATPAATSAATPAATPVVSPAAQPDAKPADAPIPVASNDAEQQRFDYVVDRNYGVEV

- binding (Fg-Ter94 (Drosophila)): binds
- binding [1]: binds
- binding [2]: no binding
- binding [3]: binds
- binding (Fg-Kib (Drosophila)): binds
B1: Myc-Mer (protein, UniProt Q24564 1-635)
chain: MSPFGSKKNRSLSVRVSTFDSELEFKLEPRASGQDLFDLVCRTIGLRESWYFGLQYVDTRSNVSWLKMEKRVRDQRVELHASNNVYVFSFYAKFFPENVSEELIQEITQHLFFLQVKQSILSMDIYCRPEASVLLASYAVHVQYGPYDYETYKDGMLAGGELLPKGVTDQYQMTPEMWEERIKTWYMDHEPMTRDEVEMEYLKIAQDLDMYGVNYFPITNKNKTKLWLGVTSVGLNIYDERDKLTPKTTFQWNEIRHVSFDDKKFTIRLVDAKVSNFIFYSQDLHINKMILDLCKGNHDLYMRRRKPDTMEIQQMKAQAKEEKQRRQIERKKFIREKKLREKAEHERYELEKSMEHLQNEMRMANDALRRSEETKELYFEKSRVNEEQMQLTECKANHFKTEMDRLRERQMKIEREKHDLEKKIRDADFYVHQLTVENDKREAETEKLRKELICAKMAEREATARLLEFLNSGRKSSTDSLLTASSVSHAANTASSMAAISTPSLITSSSTNDLETAGGAELTTHSSHYLVQGDNSSGISDDFEPKEFILTDNEMEQITNEMERNHLDYLRNSKQVQSQLQTLRSEIAPHKIEENQSNLDILSEAQIKAGENKYSTLKKLKSGSTKARVAFFEEL
